Measured values from PMC7515957.
These are yes or no findings as the source states them, for the method shown. Binding seen in cells or lysates may run through a third protein. Some entries that bind do so weakly or less than the wild type.

T1: Aquaporin 9 (mouse (endogenous in retina)) (UniProt Q9JJJ3)
T1 sequence: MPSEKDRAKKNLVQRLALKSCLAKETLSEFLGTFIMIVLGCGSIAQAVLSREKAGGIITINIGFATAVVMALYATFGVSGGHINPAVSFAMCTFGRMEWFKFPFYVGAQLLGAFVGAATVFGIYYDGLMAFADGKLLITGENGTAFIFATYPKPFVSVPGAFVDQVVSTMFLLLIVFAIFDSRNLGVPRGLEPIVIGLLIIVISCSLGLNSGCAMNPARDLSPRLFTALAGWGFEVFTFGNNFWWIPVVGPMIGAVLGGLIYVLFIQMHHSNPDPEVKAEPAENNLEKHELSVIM


Assays:
[1] = target: T1, Aquaporin 9 (mouse (endogenous in retina)); test: co-IP; retinal lysate (800 ug protein; lysate incubated in 1% SDS for 30 min) of WT mice with sham operation, also compared with WT mice 7 days after optic nerve crush (ONC); anti-AQP9 antibody (ab84828) and Dynabeads Protein A, room temperature; immunoblot for MCT1, MCT2, MCT4
[2] = target: T1, Aquaporin 9 (mouse (endogenous in retina)); test: co-IP; as a1, but retinal lysate of WT mice 7 days after optic nerve crush (ONC); anti-AQP9 antibody (ab84828) and Dynabeads Protein A; immunoblot for MCT4

Row | binding [1] | binding [2] | Binder
1 | binds |  | Monocarboxylate transporter 1 (protein, UniProt P53986 1-493) MPPAIGGPVGYTPPDGGWGWAVLVGAFISIGFSYAFPKSITVFFKEIEVIFSATTSEVSWISSIMLAVMYAGGPISSILVNKYGSRPVMIAGGCLSGCGLIAASFCNTVQELYLCIGVIGGLGLAFNLNPALTMIGKYFYKKRPLANGLAMAGSPVFLSTLAPLNQAFFDIFDWRGSFLILGGLLLNCCVAGSLMRPIGPEQVKLEKLKSKESLQEAGKSDANTDLIGGSPKGEKLSVFQTINKFLDLSLFTHRGFLLYLSGNVVMFFGLFTPLVFLSSYGKSKDFSSEKSAFLLSILAFVDMVARPSMGLAANTKWIRPRIQYFFAASVVANGVCHLLAPLSTTYVGFCVYAGVFGFAFGWLSSVLFETLMDLIGPQRFSSAVGLVTIVECCPVLLGPPLLGRLNDMYGDYKYTYWACGVILIIAGIYLFIGMGINYRLLAKEQKAEEKQKREGKEDEASTDVDEKPKETMKAAQSPQQHSSGDPTEEESPV
2 | binds |  | Monocarboxylate transporter 2 (protein, UniProt O70451 1-484) MPSEPSAPLPQPLPPDGGWGWVVVCASFISIGFSYAFPKAVTVFFKDIQEIFNTTSSQIAWISSIMLAVMYAGGPISSVLVNNYGSRPVVIVGGLLCCIGMILASYSNSVIELYLTVGFIGGLGLAFNLQPALTIIGKYFYRRRPLANGCAMAGSPVFLSTLAPFNQYLFNNYGWKGSFLILGGIFLHSCVAGCLMRPVGPSPNTKKSKSKVGSRHDSTLKKASKVSTAQKVNRFLDFSLFMHRGFLIYLSGNVILFLGIFAPIIFLAQYAKHIGVDDYNSAFLLSVMAFIDMFARPSVGLIANTSLIRPRIQYLFSSAIIFTGICHLLCPLATTYSALVVYVVFFGLGFGSISSLLFECLMDIVGATRFSSAVGLTTIVECCPVLFGPPLAGKLLDITGEYKYLYIASGTVVLVSGTYLLIGNAINYRLLDKERKREKAKKKKSASHASREMEALNRSKQDEVTVKASNAHNPPSDRDKESNI
3 | binds | binds weakly | Monocarboxylate transporter 4 (protein, UniProt P57787 1-470) MGGAVVDEGPTGIKAPDGGWGWAVLFGCFIITGFSYAFPKAVSVFFKELMHEFGIGYSDTAWISSILLAMLYGTGPLCSVCVNRFGCRPVMLVGGLFASLGMVAASFCRSIIQIYLTTGVITGLGLALNFQPSLIMLNRYFNKRRPIANGLAAAGSPVFLCALSPLGQLLQDHYGWRGGFLILGGLLLNCCVCAALMRPLVAPQVGGGTEPRGPQRPPQRLLDLSVFRDRGFLIYAVAASIMVLGLFVPPVFVVSYAKDMGVPDTKAAFLLTILGFIDIFARPTAGFITGLKKVRPYSVYLFSFAMFFNGFTDLTGSTATDYGGLVVFCIFFGISYGMVGALQFEVLMAIVGTQKFSSAIGLVLLLEAVAVLIGPPSGGKLLDATKVYKYVFILAGAEVLTSSLVLLLGNFFCIGKRKRPEVTEPEEVASEEKLHKPPVDVGVDSREVEHFLKAEPEKNGEVVHTPETSV
